Data: PubChem BioAssay AID1671190 (National Center for Advancing Translational Sciences (NCATS), 2021)
Where “and” joins values, the source holds several entries; their conditions need not be identical. Equal entries are not always repeated. Hit rate of the full screen: of about 580,000 compounds, about 6,100 (1.1%) were called active. Inconclusive results, whose numbers are uncertain, are shown with a selection of clear calls. Calls follow the shape of the dose curve; as a rule, active = well fitted inhibition curve with a large enough effect; inconclusive = small, poorly fitted or top-dose-only effect, or another doubt; inactive = no such curve, though single readings can be large or run the other way. Where the call is inconclusive, the potency comes from a doubtful curve fit.

Chains of the proteins cited; added tags and fusions are not shown.
UniProt P18054, whole entry, looked up: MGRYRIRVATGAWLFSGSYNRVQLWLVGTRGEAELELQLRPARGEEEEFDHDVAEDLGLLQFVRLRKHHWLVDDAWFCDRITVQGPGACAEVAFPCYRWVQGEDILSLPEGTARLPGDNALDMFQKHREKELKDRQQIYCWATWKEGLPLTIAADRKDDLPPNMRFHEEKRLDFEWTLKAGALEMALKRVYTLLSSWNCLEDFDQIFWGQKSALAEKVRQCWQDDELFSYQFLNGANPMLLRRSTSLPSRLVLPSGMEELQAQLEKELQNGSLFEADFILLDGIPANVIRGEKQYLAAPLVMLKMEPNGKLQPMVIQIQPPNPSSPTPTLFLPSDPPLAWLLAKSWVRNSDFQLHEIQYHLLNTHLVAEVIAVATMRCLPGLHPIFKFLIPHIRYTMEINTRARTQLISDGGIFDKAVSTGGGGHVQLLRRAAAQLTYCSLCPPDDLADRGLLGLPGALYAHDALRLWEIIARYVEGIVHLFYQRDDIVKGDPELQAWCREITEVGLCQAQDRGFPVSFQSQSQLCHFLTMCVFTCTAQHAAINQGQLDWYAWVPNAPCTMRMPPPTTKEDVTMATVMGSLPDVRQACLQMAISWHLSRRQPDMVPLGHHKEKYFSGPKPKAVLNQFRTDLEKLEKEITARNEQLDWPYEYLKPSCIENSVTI

Target: Polyunsaturated fatty acid lipoxygenase ALOX12 (Homo sapiens) (UniProt P18054)
Test: Primary qHTS assay for inhibitors of human arachidonate 12S-lipoxygenase (ALOX12): Round 2
Settings: purified 12hLO, xylenol orange hydroperoxide absorbance; activity change, negative = inhibition: at 108 µM (top of the series) unless noted
Summary of the method: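 Purified human 12hLO (150 nM final) in 25 mM Hepes, 0.01% Triton X-100, pH 7.0 was preincubated 15 min at room temperature with compound. Then 40 uM arachidonic acid was added, 30 min. Hydroperoxide was read by Fe-XO absorbance ratio 573/405 nm.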
% is scaled to controls: 0 for no effect and ±100 for the full control effect; potency is read from the fitted curve at half-maximal effect.

SMILES	Potency	activity change, negative = inhibition
COc1ccc(S(=O)(=O)c2ccc(OC)c(OC)c2)cc1OC	inconclusive: 100 µM [inhibitor, single point]	
CC1=C(C(=O)OCc2ccc3c(c2)OCO3)C(c2c(F)cccc2Cl)CC(=O)N1 (stereo not given)		inactive: 1.26%
O=C(O)CNS(=O)(=O)c1ccc(C(=O)/C=C/c2ccccc2Cl)cc1		inactive: 52.6%
CCN1C(=S)N[C@@H](c2cccc(F)c2)C(C(=O)OC)=C1C	inconclusive: 50.1 µM [inhibitor, partial curve, poor fit]	
CCn1c(SCC(=O)Nc2ccc(N(C)C)cc2)nnc1-c1cccc(C)c1	inconclusive: 89.1 µM [inhibitor, partial curve, poor fit]	
CCC(C)(C)n1nnnc1C(c1ccc(OC)c(OC)c1)N1CCN(c2ccc(F)cc2)CC1 (stereo not given)	inconclusive: 11.2 µM [inhibitor, full curve, poor fit]	
COc1ccc(Nc2nc(C)nc3c2oc2ccccc23)cc1	inconclusive: 25.1 µM [inhibitor, partial curve]	
CCOC(=O)C(C#N)C1(Cc2ccccc2)CCOC(C)(C)C1 (stereo not given)	inconclusive: 44.7 µM [inhibitor, partial curve, poor fit]	
Cc1noc(C)c1-c1cn(CCNS(=O)(=O)c2ccc(Cl)cc2)nn1	inconclusive: 44.7 µM [inhibitor, partial curve, poor fit]	
CCOC(=O)[C@]12CCC=C1N(CCC1=CCCCC1)C(=O)[C@H](CC(=O)NCCC(C)C)C2	inconclusive: 12.6 µM [inhibitor, full curve, poor fit]	
CCN(CC)c1ccc(NC(=O)CCN2C(=O)c3ccccc3S2(=O)=O)c(C)c1		inactive: -2.73%
COc1ccc(CCNC(=O)CSCc2nc(-c3ccc(OC)c(OC)c3)oc2C)cc1OC	inconclusive: 89.1 µM [inhibitor, partial curve, poor fit]	
CCOC(=O)CC(NC(=O)Cc1cccs1)c1ccccc1Cl (stereo not given)	inconclusive: 70.8 µM [inhibitor, partial curve, poor fit]	
COc1ccccc1C(C(=O)c1ccccc1)c1ccc(O)cc1 (stereo not given)		inactive: -23.8%
N#Cc1ccc(/C=N/Nc2ccc(F)cc2)cc1	active: 15.8 µM	
CCOc1ccc(-c2cc(C(=O)NC(C)C)c3ccccc3n2)cc1		inactive: -40.1%
Cc1ccc(CSCCNS(=O)(=O)c2ccc(C)cc2)cc1	inconclusive: 56.2 µM [inhibitor, partial curve, poor fit]	
c1ccc(-c2ccc3nnnn3n2)cc1	inconclusive: 56.2 µM [inhibitor, partial curve, poor fit]	
NC(=O)C1=C(Nc2ccc(Br)cc2F)c2ccccc2S1(=O)=O		inactive: 17.1%
O=C1CN(c2ccccc2)C(=S)N1C(=O)c1ccccc1	inconclusive: 50.1 µM [inhibitor, partial curve, poor fit]	
Cc1ccc(C2=NC(C)(C)N=C2SCC(=O)Nc2ccc(Br)c(C)c2)cc1	inconclusive: 100 µM [inhibitor, partial curve, poor fit]	
Cc1ccc(S(=O)(=O)Nc2cccc(-c3cn4ccsc4n3)c2)cc1	inconclusive: 100 µM [inhibitor, single point]	

Some values from above.
CCC(C)(C)n1nnnc1C(c1ccc(OC)c(OC)c1)N1CCN(c2ccc(F)cc2)CC1 (stereo not given) | Potency: inconclusive: 11.2 µM [inhibitor, full curve, poor fit]
CCn1c(SCC(=O)Nc2ccc(N(C)C)cc2)nnc1-c1cccc(C)c1 | Potency: inconclusive: 89.1 µM [inhibitor, partial curve, poor fit]

Further records follow:

SMILES	Potency	activity change, negative = inhibition
Cc1cc2c(s1)CCc1cc(C(=O)NC3CCCCC3)sc1-2	inconclusive: 15.8 µM [inhibitor, partial curve, poor fit]	
CCCCC(=O)Nc1cccc(-c2cn3ccccc3n2)c1	inconclusive: 0.224 µM [inhibitor, full curve, poor fit]	
COc1ccc(-c2coc3cc4oc(=O)c(CC(=O)O)c(C)c4cc23)cc1	inconclusive: 0.562 µM [inhibitor, full curve, poor fit]	
CSc1cccc(NC(=O)Cn2c(-c3ccc(F)cc3)nc(C)c(CCO)c2=O)c1	inconclusive: 44.7 µM [inhibitor, partial curve]	
CN1c2ccccc2C(O)=C(C(=S)Nc2ccccc2)S1(=O)=O	inconclusive: 7.08 µM [inhibitor, full curve]	
Cc1ccc(C2C(/C=C3/SC(=S)NC3=O)=C(c3cccs3)Oc3ccccc32)cc1 (stereo not given)	inconclusive: 0.447 µM [inhibitor, full curve]	
CC(C)(O)CCc1cccc(C(=O)NCCNc2cccnc2)c1		inactive: -1.03%
COc1ccc(/C=C/C(=O)NC(=S)Nc2ccc(S(=O)(=O)Nc3nccnc3OC)cc2)cc1	inconclusive: 14.1 µM [inhibitor, full curve]	
CC(=O)N1CCN(c2ccc(NC(=O)C(C)Oc3ccc(Cl)cc3Cl)cc2)CC1 (stereo not given)		inactive: 0%
Cc1cc(C(=O)N2CCC3(CCNCC3)CC2)c2cccc(C)c2n1	inconclusive: 22.4 µM [inhibitor, full curve]	
COCCn1c(SCC(=O)Nc2ccc(F)cc2)nc2c(c1=O)SCC2	inconclusive: 0.224 µM [inhibitor, full curve, poor fit]	
Cc1ccc2c(c1C)-c1c(ccc(C)c1C)C(=O)C2=O	inconclusive: 50.1 µM [inhibitor, partial curve, poor fit]	
CCOC(=O)C1=C(C#N)C(C(=O)OCC)c2ncccc21 (stereo not given)	inconclusive: 14.1 µM [inhibitor, full curve]	
CC(C)(C)c1cc[n+](/C(C(=S)NC2CC2)=C(/[O-])c2ccc(Cl)s2)cc1	inconclusive: 2.24 µM [inhibitor, full curve, poor fit]	
CCN(Cc1cc2ccccc2[nH]c1=O)C(=O)c1cccc(Cl)c1		inactive: -2.22%
O=C(O)c1ccc(N/N=C/C2=C(N3CCOCC3)C(=C\c3ccccc3)/CC2)cc1		inactive: -55.7%
Oc1ccc2ccccc2c1CNc1ccc2ccccc2c1	inconclusive: 44.7 µM [inhibitor, partial curve, poor fit]	
O=C(O)CCN1C(=O)/C(=C/c2ccc(-c3nc4ccccc4s3)o2)SC1=S	active: 39.8 µM	
COc1ccc(OC)c(N/C=C/C(=O)c2ccc(OC)c(OC)c2)c1		inactive: 14.7%
Cc1ccc(C(=O)NC(=S)Nc2ccccc2C(F)(F)F)cc1C	inconclusive: 31.6 µM [inhibitor, partial curve, poor fit]	
Cc1cc2oc(C(=O)NCC(c3cccs3)N(C)C)cc(=O)c2cc1Cl (stereo not given)	inconclusive: 35.5 µM [inhibitor, partial curve, poor fit]	
N#Cc1c(/N=C/c2ccccc2)oc(-c2ccccc2)c1-c1ccccc1	inconclusive: 50.1 µM [inhibitor, partial curve, poor fit]	

Two compounds picked at random from those above, as already listed:
SMILES	Potency	activity change, negative = inhibition
Cc1ccc(C2=NC(C)(C)N=C2SCC(=O)Nc2ccc(Br)c(C)c2)cc1	inconclusive: 100 µM [inhibitor, partial curve, poor fit]	
COc1ccc(S(=O)(=O)c2ccc(OC)c(OC)c2)cc1OC	inconclusive: 100 µM [inhibitor, single point]	

Going on with the list.

SMILES	Potency	activity change, negative = inhibition
COc1cccc(C2Nc3ccccc3-c3nnc(SCc4ccccc4)nc3O2)c1OC (stereo not given)	inconclusive: 100 µM [inhibitor, partial curve, poor fit]	
Cc1ccc2c(c1)N(C(=O)c1ccco1)C(C)(C)c1ssc(=S)c1-2	inconclusive: 10 µM [inhibitor, full curve, poor fit]	
O=Cc1c(N2CCC3(CC2)OCCO3)nc2ccccn2c1=O		inactive: 135%
Cc1nnn(-c2nonc2N)c1C(=O)N/N=C/c1cccc2ccccc12		inactive: -17.4%
COc1ccc(S(N)(=O)=O)cc1N(C)S(=O)(=O)c1ccccc1		inactive: 5.56%
CCOP(=O)(OCC)c1nc(-c2cccc3ccccc23)oc1NC		inactive: -19.3%
CCOC(=O)C(NC(C)=O)(Nc1ccc(S(=O)(=O)Nc2ncccn2)cc1)C(F)(F)F (stereo not given)		inactive: -4.87%
CC(=O)Nc1ccc(NC(=O)NC(C)C)cc1	inconclusive: 35.5 µM [inhibitor, partial curve]	
Cc1ccc(/C=N/NC(=S)NC2CCCCC2)o1	inconclusive: 56.2 µM [inhibitor, partial curve, poor fit]	
CC1(C)Cc2c(C#N)c(NCCO)nc(-c3ccco3)c2CO1	inconclusive: 28.2 µM [inhibitor, partial curve, poor fit]	
COc1ccc(CNc2ccnc(-c3ccc(C(=O)N(C)C)cc3)n2)c(OC)c1	inconclusive: 8.91 µM [inhibitor, full curve, poor fit]	
CC(C)(C)c1ccccc1N=Cc1ccc2ccccc2n1	inconclusive: 39.8 µM [inhibitor, partial curve, poor fit]	
Cc1ccc2nc(C3CCCN(Cc4cccc(-c5ccc(F)cc5F)c4)C3)[nH]c(=O)c2c1 (stereo not given)	inconclusive: 44.7 µM [inhibitor, partial curve, poor fit] and inconclusive: 89.1 µM [inhibitor, single point]	
Clc1ccc2[nH]c3c(c2c1)CCc1cn[nH]c1-3		inactive: -16.5%
CC(=O)N1CC2(CCN(Cc3cnc(N)nc3)CC2)CC1C(=O)O (stereo not given)	inconclusive: 15.8 µM [inhibitor, full curve, poor fit]	
Nc1nc(N)c(N=Nc2ccccc2)c(=O)[nH]1	inconclusive: 56.2 µM [inhibitor, partial curve, poor fit]	
O=C(Cn1c(=O)ccc2cc(S(=O)(=O)N3CCCC3)ccc21)NCc1ccc(F)cc1	inconclusive: 141 µM [inhibitor, partial curve, poor fit]	
CCCCCCSc1cc(-c2nc3ccc(Cl)cn3c2NCCCC)ccc1OC	inconclusive: 56.2 µM [inhibitor, partial curve, poor fit] and inconclusive: 44.7 µM [inhibitor, partial curve, poor fit]	
CSc1nc(-c2ccco2)nn1S(=O)(=O)c1ccc(C)cc1		inactive: -111%
Cc1cc(C(=O)N2CCC2(C)C(=O)O)c(C)o1 (stereo not given)	inconclusive: 39.8 µM [inhibitor, partial curve, poor fit]	
O=C1c2ccccc2C(=O)N1/N=C/c1ccc(O)c(O)c1	active: 22.4 µM	
